In publication PMC11188874, “HDAC6 Inhibition Releases HR23B to Activate Proteasomes, Expand the Tumor Immunopeptidome and Amplify T-cell Antimyeloma Activity” (Cancer Research Communications, 2024):
Results are given in words; binding and its absence hold for the method and conditions named. In cells and extracts the contact can be indirect. Some entries that bind do so weakly or less than the wild type.

The chains behind the UniProt entries cited, without tags or fusion partners.
UniProt Q9UBN7: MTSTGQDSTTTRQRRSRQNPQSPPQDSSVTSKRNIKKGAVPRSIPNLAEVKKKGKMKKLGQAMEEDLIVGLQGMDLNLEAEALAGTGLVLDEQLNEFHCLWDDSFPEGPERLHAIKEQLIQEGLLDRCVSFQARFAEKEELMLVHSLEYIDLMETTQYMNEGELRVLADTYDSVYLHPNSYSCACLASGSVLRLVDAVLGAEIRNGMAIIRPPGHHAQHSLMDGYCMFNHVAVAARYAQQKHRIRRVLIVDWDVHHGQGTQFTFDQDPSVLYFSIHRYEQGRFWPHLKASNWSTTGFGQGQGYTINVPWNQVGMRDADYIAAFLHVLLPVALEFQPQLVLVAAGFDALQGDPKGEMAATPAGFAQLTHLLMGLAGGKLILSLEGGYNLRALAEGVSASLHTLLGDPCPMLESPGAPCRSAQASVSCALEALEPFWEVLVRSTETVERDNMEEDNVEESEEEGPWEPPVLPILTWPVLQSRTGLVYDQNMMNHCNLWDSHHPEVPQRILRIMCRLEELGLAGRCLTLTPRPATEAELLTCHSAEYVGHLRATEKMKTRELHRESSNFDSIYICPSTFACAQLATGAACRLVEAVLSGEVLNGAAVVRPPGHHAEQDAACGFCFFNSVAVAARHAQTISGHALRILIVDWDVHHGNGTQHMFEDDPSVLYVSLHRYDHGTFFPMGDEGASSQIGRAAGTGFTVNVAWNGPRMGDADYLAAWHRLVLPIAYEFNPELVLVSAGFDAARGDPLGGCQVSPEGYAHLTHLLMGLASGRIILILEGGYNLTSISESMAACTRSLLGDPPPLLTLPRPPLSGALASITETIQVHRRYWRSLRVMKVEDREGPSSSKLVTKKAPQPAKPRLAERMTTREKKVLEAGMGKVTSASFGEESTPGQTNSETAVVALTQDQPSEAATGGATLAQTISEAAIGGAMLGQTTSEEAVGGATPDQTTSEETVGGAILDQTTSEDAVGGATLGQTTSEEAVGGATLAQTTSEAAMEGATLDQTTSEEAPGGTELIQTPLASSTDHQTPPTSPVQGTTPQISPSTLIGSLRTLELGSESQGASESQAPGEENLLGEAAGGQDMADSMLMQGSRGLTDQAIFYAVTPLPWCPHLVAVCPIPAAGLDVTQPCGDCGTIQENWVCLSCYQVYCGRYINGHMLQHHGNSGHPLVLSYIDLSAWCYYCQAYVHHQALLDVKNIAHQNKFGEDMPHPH
UniProt O00487: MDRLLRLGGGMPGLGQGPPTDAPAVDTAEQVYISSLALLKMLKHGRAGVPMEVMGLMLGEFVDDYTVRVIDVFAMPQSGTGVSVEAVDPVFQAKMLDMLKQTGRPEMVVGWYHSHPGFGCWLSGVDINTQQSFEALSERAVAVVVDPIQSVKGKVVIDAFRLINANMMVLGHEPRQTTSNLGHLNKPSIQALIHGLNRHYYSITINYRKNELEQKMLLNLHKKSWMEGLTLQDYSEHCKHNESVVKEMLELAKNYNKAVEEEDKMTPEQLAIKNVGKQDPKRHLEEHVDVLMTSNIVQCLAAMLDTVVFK
UniProt P54725: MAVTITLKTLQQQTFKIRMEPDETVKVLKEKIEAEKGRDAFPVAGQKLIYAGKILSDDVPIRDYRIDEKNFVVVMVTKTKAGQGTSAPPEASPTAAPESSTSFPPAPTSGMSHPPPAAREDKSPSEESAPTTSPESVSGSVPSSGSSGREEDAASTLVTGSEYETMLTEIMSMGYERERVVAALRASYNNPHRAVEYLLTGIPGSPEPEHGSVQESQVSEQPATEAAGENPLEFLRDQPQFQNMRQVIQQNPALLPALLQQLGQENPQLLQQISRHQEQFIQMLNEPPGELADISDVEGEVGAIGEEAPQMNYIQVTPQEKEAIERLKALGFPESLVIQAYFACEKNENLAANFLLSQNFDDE
UniProt P54727: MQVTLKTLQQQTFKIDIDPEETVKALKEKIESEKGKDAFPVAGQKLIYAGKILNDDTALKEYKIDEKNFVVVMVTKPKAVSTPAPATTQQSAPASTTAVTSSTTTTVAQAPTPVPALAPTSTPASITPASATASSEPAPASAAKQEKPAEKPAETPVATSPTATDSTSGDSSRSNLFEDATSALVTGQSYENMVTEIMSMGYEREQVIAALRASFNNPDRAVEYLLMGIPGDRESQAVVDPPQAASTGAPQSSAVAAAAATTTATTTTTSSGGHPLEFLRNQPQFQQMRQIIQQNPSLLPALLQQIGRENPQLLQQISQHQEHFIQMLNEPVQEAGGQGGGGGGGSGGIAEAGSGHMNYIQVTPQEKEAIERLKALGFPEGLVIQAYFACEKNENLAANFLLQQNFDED

What was measured:
[1] = molecular target: full-length, WT FLAG-tagged HDAC6 (in RPMI-8226 cells) (human) (UniProt Q9UBN7); experiment: co-IP; RPMI-8226 cells transfected with FLAG-tagged HDAC6, treated or not with HDAC6 inhibitors (1 µmol/L, 24 hours); lysates under nondenaturing conditions; precipitated with a FLAG-specific antibody; blots probed for HR23A and HR23B
[2] = molecular target: FLAG-tagged full-length, WT HDAC6 (pcDNA-HDAC6-FLAG) (human) (UniProt Q9UBN7); experiment: co-IP; HeLa HDAC6-KO cells transfected with FLAG-tagged HDAC6 constructs, harvested after 48 hours; lysates under nondenaturing conditions; Pierce anti-DYKDDDDK affinity resin 2 hours at 4°C, elution with 3X DYKDDDDK peptide; immunoblots with anti-FLAG or HR23B antibodies
[3] = molecular target: Flag-HA-PSMD14 (UniProt O00487); experiment: co-IP; RPMI-8226 cells expressing FLAG-tagged PSMD14, treated or not with HDAC6 inhibitors; precipitated with a FLAG-specific antibody; blots probed for HR23A and HR23B

Substance | binding [1] | binding [2] | binding [3]
HR23A (endogenous, RPMI-8226) (from UniProt P54725 1-363) | binds |  | 
HR23B (endogenous, HeLa) (from UniProt P54727 1-409) |  | binds | 
HR23B (endogenous, RPMI-8226) (from UniProt P54727 1-409) | binds |  | binds
